Assay results taken from the supplement of paper PMC12593923.
Some well-known active drugs show little effect in this data set, so a weak value is uncertain.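 The three lines are all high-grade serous ovarian cancer cells with differing chemosensitivity; OVCAR3 is described as chemosensitive. Toxicity was normalized between DMSO vehicle wells and fully lysed wells, the score comes from a fitted multi-dose response curve, and a score above 5 was counted as drug sensitivity.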

Assays:
Assay in all cases: drug sensitivity score (DSS2, cytotoxicity, CellTox Green); higher = more cytotoxic / more sensitive; extreme values may be limits of the assay
Settings in all cases: 72 h; doses 0.5, 1, 5 µM
[1] = tested on: OVCAR4
[2] = tested on: Kuramochi
[3] = tested on: OVCAR3

Measured: drug sensitivity score

COc1ccc(-c2cc(C(F)F)nn2-c2ccc(S(N)(=O)=O)cc2)cc1F [Deracoxib]
0 DSS: all assays above

Cc1cc2c(C(C)C)c(O)c(O)c(C=O)c2c(O)c1-c1c(C)cc2c(C(C)C)c(O)c(O)c(C=O)c2c1O [Gossypol]
0 DSS: all assays above

CC1(C)[C@@H](O)CC[C@]2(C)[C@H]3C(=O)C=C4[C@H]5C[C@@](C)(C(=O)O)CC[C@]5(C)CC[C@@]4(C)[C@]3(C)CC[C@@H]12 [18α-Glycyrrhetinic acid]
0 DSS: all assays above

N=C1CCCN1Cc1[nH]c(=O)[nH]c(=O)c1Cl.O=c1[nH]c(=O)n([C@H]2C[C@H](O)[C@@H](CO)O2)cc1C(F)(F)F.O=c1[nH]c(=O)n([C@H]2C[C@H](O)[C@@H](CO)O2)cc1C(F)(F)F [Trifluridine/tipiracil hydrochloride mixture]
0 DSS: all assays above
